# The other results are listed elsewhere or left out. Repeats are few or missing, and single values can be far off.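 The apoptosis fraction was the count of cleaved-PARP antibody-stained nuclei relative to all DNA-stained nuclei, imaged in 1,536-well plates. Screening doses were set so most cells survived, and baseline and induced cleaved-PARP levels vary greatly across cell lines.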
# Columns and labels:
# Experiment in all cases: cleaved PARP positive nuclei fraction relative to DMSO control; melanoma cells; higher = more apoptosis
# Details in all cases: library dose: low library concentration; 72 h
# 501Mel = test system: 501Mel
# A101D = test system: A101D
# A2058 = test system: A2058
# A375 = test system: A375
# C32 = test system: C32
# CBRC008 = test system: CBRC008 (line from a melanoma biopsy)
# CBRC013 = test system: CBRC013 (line from a melanoma biopsy)
# CBRC014 = test system: CBRC014 (line from a melanoma biopsy)
# CBRC016 = test system: CBRC016 (line from a melanoma biopsy)
# CBRC017 = test system: CBRC017 (line from a melanoma biopsy)
# COLO792 = test system: COLO792
# COLO800 = test system: COLO800
# COLO829 = test system: COLO829
# G361 = test system: G361
# IPC-298 = test system: IPC-298
# IST-MEL1 = test system: IST-MEL1
# LB2518-MEL = test system: LB2518-MEL
# LOXIMVI = test system: LOXIMVI
# MEL-HO = test system: MEL-HO
SMILES,cleaved PARP positive nuclei fraction (501Mel),cleaved PARP positive nuclei fraction (A101D),cleaved PARP positive nuclei fraction (A2058),cleaved PARP positive nuclei fraction (A375),cleaved PARP positive nuclei fraction (C32),cleaved PARP positive nuclei fraction (CBRC008),cleaved PARP positive nuclei fraction (CBRC013),cleaved PARP positive nuclei fraction (CBRC014),cleaved PARP positive nuclei fraction (CBRC016),cleaved PARP positive nuclei fraction (CBRC017),cleaved PARP positive nuclei fraction (COLO792),cleaved PARP positive nuclei fraction (COLO800),cleaved PARP positive nuclei fraction (COLO829),cleaved PARP positive nuclei fraction (G361),cleaved PARP positive nuclei fraction (IPC-298),cleaved PARP positive nuclei fraction (IST-MEL1),cleaved PARP positive nuclei fraction (LB2518-MEL),cleaved PARP positive nuclei fraction (LOXIMVI),cleaved PARP positive nuclei fraction (MEL-HO)
"NC1(c2ccc(-c3nc4ccn5c(=O)[nH]nc5c4cc3-c3ccccc3)cc2)CCC1 + C=CCn1c(=O)c2cnc(Nc3ccc(N4CCN(C)CC4)cc3)nc2n1-c1cccc(C(C)(C)O)n1 [MK1775] (first compound 0.4 µM, partner dose 0.02 µM)",61%,56.5%,163%,61.4%,49.5%,55.9%,102%,64.3%,107%,104%,161%,42.3%,133%,101%,96.7%,67.6%,109%,62.7%,161%
"Cn1cnc2c(F)c(Nc3ccc(Br)cc3Cl)c(C(=O)NOCCO)cc21 [selumetinib] + CC1(C)NC(=O)N(c2ccc([N+](=O)[O-])c(C(F)(F)F)c2)C1=O [nilutamide] (first compound 0.015 µM, partner dose 1 µM)",521%,27.1%,52.6%,105%,82.5%,124%,96.4%,149%,140%,135%,172%,85.4%,132%,124%,40.8%,73.2%,154%,553%,89%
"CN(c1ncccc1CNc1nc(Nc2ccc3c(c2)CC(=O)N3)ncc1C(F)(F)F)S(C)(=O)=O + C[C@@H]1CCN(C(=O)CC#N)C[C@@H]1N(C)c1ncnc2[nH]ccc12 [CP690550] (first compound 0.08 µM, partner dose 1 µM)",91.7%,40.3%,134%,80.4%,267%,75.1%,108%,81.3%,87.6%,74.1%,150%,23.3%,112%,74.3%,182%,66.4%,204%,142%,141%
"CC(=O)O[C@@]12CO[C@@H]1C[C@H](O)[C@@]1(C)C(=O)[C@H](O)C3=C(C)[C@@H](OC(=O)[C@H](O)[C@@H](NC(=O)OC(C)(C)C)c4ccccc4)C[C@@](O)([C@@H](OC(=O)c4ccccc4)[C@H]21)C3(C)C [Docetaxel] + OCCn1cc(-c2cnc3nnn(Cc4ccc5ncccc5c4)c3n2)cn1 [PF04217903] (first compound 0.0001 µM, partner dose 1 µM)",185%,117%,5210%,6710%,774%,359%,125%,122%,262%,159%,426%,458%,264%,484%,313%,55.1%,176%,193%,235%
"NC(=O)c1ccc(N(C(N)=O)c2c(F)cccc2F)nc1-c1ccc(F)cc1F + COc1cc(Nc2ncc(F)c(Nc3ccc4c(n3)NC(=O)C(C)(C)O4)n2)cc(OC)c1OC [Tamatinib] (first compound 0.4 µM, partner dose 0.4 µM)",88.4%,173%,187%,144%,101%,207%,131%,73.5%,52.7%,84.1%,135%,52.9%,95.7%,102%,134%,87.7%,146%,46.6%,49.1%
"Cn1cnc2c(F)c(Nc3ccc(Br)cc3Cl)c(C(=O)NOCCO)cc21 [selumetinib] + O=C(CCCCCCC(=O)Nc1ccccc1)NO [vorinostat] (first compound 0.015 µM, partner dose 0.08 µM)",189%,83.5%,111%,28.6%,77.5%,47.7%,151%,91.2%,182%,213%,94.4%,40.4%,125%,101%,115%,172%,128%,93.4%,71.8%
"CC1(C)CCC(c2ccc(Cl)cc2)=C(CN2CCN(c3ccc(C(=O)NS(=O)(=O)c4ccc(N[C@H](CCN5CCOCC5)CSc5ccccc5)c(S(=O)(=O)C(F)(F)F)c4)cc3)CC2)C1 + Cc1cc(N2CCOCC2)cc2[nH]c(-c3c(NC[C@@H](O)c4cccc(Cl)c4)cc[nH]c3=O)nc12 [BMS536924] (first compound 0.4 µM, partner dose 0.2 µM)",94.4%,94.3%,115%,411%,526%,1090%,133%,845%,599%,242%,541%,281%,75.2%,152%,96.5%,95.7%,108%,137%,43%
"COc1ccc(C2=N[C@@H](c3ccc(Cl)cc3)[C@@H](c3ccc(Cl)cc3)N2C(=O)N2CCNC(=O)C2)c(OC(C)C)c1 [Nutlin-3] + CN(NC(=O)CC(=O)NN(C)C(=S)c1ccccc1)C(=S)c1ccccc1 [STA4783] (first compound 0.1 µM, partner dose 0.006 µM)",375%,185%,152%,8950%,115%,1790%,195%,656%,46.3%,275%,338%,115%,400%,131%,100%,46.8%,196%,195%,107%
"Cn1cnc2c(F)c(Nc3ccc(Br)cc3Cl)c(C(=O)NOCCO)cc21 [selumetinib] + CC(C)(C)c1cnc(CSc2cnc(NC(=O)C3CCNCC3)s2)o1 [SNS-032] (first compound 0.015 µM, partner dose 0.01 µM)",174%,94.2%,77.9%,340%,89.3%,108%,135%,83.9%,132%,105%,113%,112%,75.6%,55.4%,59.4%,105%,330%,84.9%,127%
"NC1(c2ccc(-c3nc4ccn5c(=O)[nH]nc5c4cc3-c3ccccc3)cc2)CCC1 + NCC(=O)Nc1ccc(-n2nc(C(F)(F)F)cc2-c2ccc3c(ccc4ccccc43)c2)cc1 [OSU03012] (first compound 0.4 µM, partner dose 1 µM)",549%,128%,169%,3710%,60.9%,94.8%,97.1%,71.9%,52.4%,130%,134%,142%,165%,64.3%,107%,102%,51%,65.5%,170%
"C[C@@H](N)c1ccc(C(=O)Nc2ccnc3[nH]ccc23)cc1 + Cc1ccc(NC(=O)c2cccc(N(C)C)c2)cc1NC(=O)c1ccc(O)cc1 [ZM336372] (first compound 0.4 µM, partner dose 2 µM)",86.9%,87.1%,83.2%,221%,338%,35.7%,148%,118%,129%,110%,147%,56.8%,58.6%,82.2%,209%,106%,99%,120%,88.4%
"CC1(C)CCC(c2ccc(Cl)cc2)=C(CN2CCN(c3ccc(C(=O)NS(=O)(=O)c4ccc(N[C@H](CCN5CCOCC5)CSc5ccccc5)c(S(=O)(=O)C(F)(F)F)c4)cc3)CC2)C1 + NCC(=O)Nc1ccc(-n2nc(C(F)(F)F)cc2-c2ccc3c(ccc4ccccc43)c2)cc1 [OSU03012] (first compound 0.4 µM, partner dose 1 µM)",2020%,149%,143%,6080%,445%,708%,200%,1400%,1040%,494%,246%,129%,140%,115%,535%,203%,78.9%,291%,104%
"CC1(C)CCC(c2ccc(Cl)cc2)=C(CN2CCN(c3ccc(C(=O)NS(=O)(=O)c4ccc(N[C@H](CCN5CCOCC5)CSc5ccccc5)c(S(=O)(=O)C(F)(F)F)c4)cc3)CC2)C1 + O=C(CCCCCCC(=O)Nc1ccccc1)NO [vorinostat] (first compound 0.4 µM, partner dose 0.08 µM)",165%,324%,66.7%,95.1%,341%,180%,588%,553%,197%,314%,504%,35.1%,269%,143%,135%,237%,170%,178%,85.6%
"Cn1sc(=O)n(Cc2ccccc2)c1=O + CN(C)S(=O)(=O)c1ccc2c(c1)/C(=C/c1cc3c([nH]1)CCCC3)C(=O)N2 [SU6656] (first compound 0.4 µM, partner dose 0.4 µM)",86.8%,99.7%,111%,164%,19.6%,184%,72.1%,101%,97.8%,117%,133%,151%,85.2%,132%,93.9%,101%,179%,144%,64%
"COc1ccc(C2=N[C@@H](c3ccc(Cl)cc3)[C@@H](c3ccc(Cl)cc3)N2C(=O)N2CCNC(=O)C2)c(OC(C)C)c1 [Nutlin-3] + CN(C)S(=O)(=O)c1ccc2c(c1)/C(=C/c1cc3c([nH]1)CCCC3)C(=O)N2 [SU6656] (first compound 0.1 µM, partner dose 0.4 µM)",148%,264%,164%,159%,36.9%,71.3%,107%,93.2%,60.5%,118%,30.6%,71.7%,119%,88.9%,46.8%,89.9%,115%,43.3%,407%
"CCN(CC)CCNC(=O)c1c(C)[nH]c(/C=C2\C(=O)Nc3ccc(F)cc32)c1C [sunitinib] + NC(=O)Nc1cc(-c2cccc(F)c2)sc1C(=O)N[C@H]1CCCNC1 [AZD7762] (first compound 0.4 µM, partner dose 0.02 µM)",199%,38.4%,46.8%,318%,212%,57.2%,389%,83.2%,48.3%,123%,117%,48.4%,44%,157%,81%,59.6%,73.7%,103%,85%
"Cn1cnc2c(F)c(Nc3ccc(Br)cc3Cl)c(C(=O)NOCCO)cc21 [selumetinib] + NCC(=O)Nc1ccc(-n2nc(C(F)(F)F)cc2-c2ccc3c(ccc4ccccc43)c2)cc1 [OSU03012] (first compound 0.015 µM, partner dose 1 µM)",342%,35.4%,38.7%,3950%,70.7%,141%,93.8%,62.2%,56.5%,87.2%,154%,147%,127%,133%,119%,408%,148%,99.6%,183%

# Part of the list above, as tab-separated lines.
SMILES	cleaved PARP positive nuclei fraction (501Mel)	cleaved PARP positive nuclei fraction (A101D)	cleaved PARP positive nuclei fraction (A2058)	cleaved PARP positive nuclei fraction (A375)	cleaved PARP positive nuclei fraction (C32)	cleaved PARP positive nuclei fraction (CBRC008)	cleaved PARP positive nuclei fraction (CBRC013)	cleaved PARP positive nuclei fraction (CBRC014)	cleaved PARP positive nuclei fraction (CBRC016)	cleaved PARP positive nuclei fraction (CBRC017)	cleaved PARP positive nuclei fraction (COLO792)	cleaved PARP positive nuclei fraction (COLO800)	cleaved PARP positive nuclei fraction (COLO829)	cleaved PARP positive nuclei fraction (G361)	cleaved PARP positive nuclei fraction (IPC-298)	cleaved PARP positive nuclei fraction (IST-MEL1)	cleaved PARP positive nuclei fraction (LB2518-MEL)	cleaved PARP positive nuclei fraction (LOXIMVI)	cleaved PARP positive nuclei fraction (MEL-HO)
Cn1cnc2c(F)c(Nc3ccc(Br)cc3Cl)c(C(=O)NOCCO)cc21 [selumetinib] + CC1(C)NC(=O)N(c2ccc([N+](=O)[O-])c(C(F)(F)F)c2)C1=O [nilutamide] (first compound 0.015 µM, partner dose 1 µM)	521%	27.1%	52.6%	105%	82.5%	124%	96.4%	149%	140%	135%	172%	85.4%	132%	124%	40.8%	73.2%	154%	553%	89%
Cn1cnc2c(F)c(Nc3ccc(Br)cc3Cl)c(C(=O)NOCCO)cc21 [selumetinib] + NCC(=O)Nc1ccc(-n2nc(C(F)(F)F)cc2-c2ccc3c(ccc4ccccc43)c2)cc1 [OSU03012] (first compound 0.015 µM, partner dose 1 µM)	342%	35.4%	38.7%	3950%	70.7%	141%	93.8%	62.2%	56.5%	87.2%	154%	147%	127%	133%	119%	408%	148%	99.6%	183%
